In paper PMC4814890:
No constants are given. Whether binding was seen depends on the method and setting. Binding seen in cells or lysates may run through a third protein. Some binding calls cover weakened binding; strength is not graded here.

Chains of the proteins cited; added tags and fusions are not shown. Lines headed by an entry give the natural chain unless they say otherwise; changes in a name come on top.
UniProt P15208: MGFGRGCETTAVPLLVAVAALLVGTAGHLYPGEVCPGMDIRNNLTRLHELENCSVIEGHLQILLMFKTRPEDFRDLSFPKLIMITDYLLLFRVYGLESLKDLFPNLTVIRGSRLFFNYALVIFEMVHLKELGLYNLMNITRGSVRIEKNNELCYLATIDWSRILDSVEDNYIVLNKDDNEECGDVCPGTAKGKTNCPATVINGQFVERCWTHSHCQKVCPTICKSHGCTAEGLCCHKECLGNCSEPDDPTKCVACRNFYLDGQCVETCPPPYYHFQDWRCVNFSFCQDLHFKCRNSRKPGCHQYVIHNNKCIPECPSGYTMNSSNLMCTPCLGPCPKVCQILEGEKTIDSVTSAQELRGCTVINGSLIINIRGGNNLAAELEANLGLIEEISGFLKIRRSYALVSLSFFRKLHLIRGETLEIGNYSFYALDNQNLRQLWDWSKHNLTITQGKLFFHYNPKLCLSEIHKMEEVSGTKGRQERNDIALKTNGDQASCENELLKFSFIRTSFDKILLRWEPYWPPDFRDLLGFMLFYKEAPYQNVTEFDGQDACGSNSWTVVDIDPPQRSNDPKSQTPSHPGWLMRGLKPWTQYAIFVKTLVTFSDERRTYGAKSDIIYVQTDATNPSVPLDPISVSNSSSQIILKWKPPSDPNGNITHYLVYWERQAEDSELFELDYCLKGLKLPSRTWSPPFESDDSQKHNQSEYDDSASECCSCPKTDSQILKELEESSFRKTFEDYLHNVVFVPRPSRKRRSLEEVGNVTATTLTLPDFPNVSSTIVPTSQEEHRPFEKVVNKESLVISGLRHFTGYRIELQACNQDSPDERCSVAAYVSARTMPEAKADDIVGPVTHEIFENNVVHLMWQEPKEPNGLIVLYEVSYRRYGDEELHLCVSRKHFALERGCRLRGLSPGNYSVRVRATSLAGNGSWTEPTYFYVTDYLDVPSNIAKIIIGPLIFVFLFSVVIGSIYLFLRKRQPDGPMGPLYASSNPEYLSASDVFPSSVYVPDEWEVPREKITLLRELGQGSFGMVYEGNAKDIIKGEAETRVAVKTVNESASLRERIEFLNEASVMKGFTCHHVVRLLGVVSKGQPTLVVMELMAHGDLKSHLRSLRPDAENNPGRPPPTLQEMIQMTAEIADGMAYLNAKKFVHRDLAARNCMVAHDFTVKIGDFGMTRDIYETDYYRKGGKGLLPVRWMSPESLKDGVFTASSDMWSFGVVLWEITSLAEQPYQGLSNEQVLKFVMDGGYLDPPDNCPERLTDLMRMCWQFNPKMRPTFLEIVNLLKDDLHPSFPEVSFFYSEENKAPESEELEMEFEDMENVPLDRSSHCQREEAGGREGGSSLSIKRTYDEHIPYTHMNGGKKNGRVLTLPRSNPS

B1: caveolin-3 (protein, UniProt P51637 1-151)
chain: MMTEEHTDLEARIIKDIHCKEIDLVNRDPKNINEDIVKVDFEDVIAEPEGTYSFDGVWKVSFTTFTVSKYWCYRLLSTLLGVPLALLWGFLFACISFCHIWAVVPCIKSYLIEIQCISHIYSLCIRTFCNPLFAALGQVCSNIKVVLRREG
B2: caveolin-1 (protein, UniProt P49817 1-178)
chain: MSGGKYVDSEGHLYTVPIREQGNIYKPNNKAMADEVTEKQVYDAHTKEIDLVNRDPKHLNDDVVKIDFEDVIAEPEGTHSFDGIWKASFTTFTVTKYWFYRLLSTIFGIPMALIWGIYFAILSFLHIWAVVPCIKSFLIEIQCISRVYSIYVHTFCDPLFEAIGKIFSNIRISTQKEI

Target: insulin receptor (mouse (endogenous in HL-1)) (UniProt P15208)
Test: co-IP; IR immunoprecipitated with an antibody against the beta chain of IR from HL-1 cells challenged with or without 200 nmol/L insulin for 5 min; immunoblotted for CAV1, CAV3 and IR β; mouse serum as immunoprecipitation control

| Binder | binding |
| --- | --- |
| B1 | binds |
| B2 | binds |
